PubChem BioAssay AID485314 (National Center for Advancing Translational Sciences (NCATS), 2010)
Out of some 340,000 compounds screened, about 4,500 (1.3%) were called active. This list was built around the results that the source calls inconclusive (neither active nor inactive); the mix of calls is not that of the screen. The call rests on the fitted dose curve; in most records, active means well fitted inhibition curve with a large enough effect; inconclusive means small, poorly fitted or top-dose-only effect, or another doubt; inactive means no such curve, though single readings can be large or run the other way. A potency beside an inconclusive call is a rough fit, not a confirmed value.

These compounds were tested against DNA polymerase beta (Homo sapiens) (UniProt P06746) (assay: qHTS Assay for Inhibitors of DNA Polymerase Beta). Details: Pol beta primer extension/strand displacement, fluorescence kinetic; activity change, negative = inhibition: at 114 µM (top of the series).
Summary of the method: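 Reaction started by 50 nM substrate onto compound-treated Pol beta (10 nM, 15 min preincubation, room temperature); plates read at 0 min and 10 min. Normalized concentration-effect data fitted by four-parameter Hill equation.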
On the % scale 0 is the no-effect control and ±100 the full control effect; potency means the concentration at half of the fitted maximal effect.

| SMILES | Potency | activity change, negative = inhibition |
| --- | --- | --- |
| O=C(O)CC/C(=C\c1ccc(N2CCOCC2)c([N+](=O)[O-])c1)c1nc2ccccc2s1 | inactive |  |
| O=C(c1cccc2c1-c1ccccc1C2)N1CCCCC1 | inconclusive: 0.141 µM [inhibitor, full curve, poor fit] |  |
| Cn1c(-c2ccc(C(C)(C)C)cc2)n[nH]c1=S | inconclusive: 89.1 µM [inhibitor, single point] |  |
| Nc1c(C(=O)NCC2CCCO2)sc2nc3c(c(-c4ccco4)c12)CC/C3=C\c1ccco1 (stereo not drawn) | active: 2.82 µM |  |
| COC(=O)c1c(NC(=O)c2ccccc2)sc(C(N)=O)c1C | inactive |  |
| CS(=O)(=O)Nc1cccc(C2=NN(S(C)(=O)=O)C(c3ccc4c(c3)OCO4)C2)c1 (stereo not drawn) | inactive |  |
| Cc1c(C(=O)O)oc2c1-c1nn(Cc3ccccc3Cl)cc1CC2 | inconclusive: 28.2 µM [inhibitor, full curve] |  |
| O=C(O)c1cccc(NC(=S)N/N=C/c2ccccc2OCc2ccc(Br)cc2)c1 | inconclusive: 89.1 µM [inhibitor, single point] |  |
| CCc1nnc(N/N=C/c2ccc(-c3ccc([N+](=O)[O-])cc3)o2)n1N | inactive |  |
| N#CC(=C=[N-])C1=C(C#N)C(c2ccccc2F)C([n+]2ccccc2)C(O)(C2CC2)N1 (stereo not drawn) | inconclusive: 89.1 µM [inhibitor, single point] |  |
| CO/C=C\C=C/c1nnn(-c2ccc(Cl)cc2)n1 | inconclusive: 44.7 µM [inhibitor, partial curve] |  |
| O=S(=O)(c1ccc(Cl)cc1)N1CCCC(C(F)(F)F)C1 (stereo not drawn) | inconclusive: 0.708 µM [inhibitor, full curve, poor fit] |  |
| O=C(CSCc1ccccc1Cl)N/N=C/c1ccco1 | inconclusive: 79.4 µM [inhibitor, single point] |  |
| COc1ccc(N2CCN(C(=O)c3nc4nc(C)cc(C)n4n3)CC2)cc1 | inconclusive: 39.8 µM [inhibitor, single point] |  |
| COC/C=C/C1=CC2=CC(=O)C(C)(OC(=O)c3ccco3)C(=O)C2=CO1 (stereo not drawn) | active: 28.2 µM |  |
| Cc1ccc2cccc(S(=O)(=O)N3CCN(c4cccc(Cl)c4)CC3)c2n1 | inconclusive: 22.4 µM [inhibitor, single point] |  |
| O=C(N/N=C/c1ccc(N2CCOCC2)cc1)c1ccc(O)cc1 | inconclusive: 79.4 µM [inhibitor, single point] |  |
| CCOC(=O)CCNC(=O)N1CCN(S(=O)(=O)c2ccc3c(ccn3C)c2)CC1 | inactive |  |
| O=C(Nc1nc2c(F)cccc2s1)c1ccc2c(c1)OCCO2 | inconclusive: 89.1 µM [inhibitor, single point] |  |
| Cc1ccc(CNC(=O)Cn2c(-c3cccs3)cc3cc(Cl)ccc32)cc1 | inactive |  |
| Cc1ccc(CNC(=O)c2ccc3c(c2)NC(=O)C(CS(=O)(=O)Cc2cccc(F)c2)N3)cc1 (stereo not drawn) | inactive |  |
| CNc1ccccc(C(=O)/C=C/c2ccccc2OC)c1=O | active: 50.1 µM |  |
| CC1(C)CC(=O)C2=C(C1)OC(N)=C(C#N)C21C(=O)N(Cc2ccccc2Cl)c2ccccc21 (stereo not drawn) | inconclusive: 4.47 µM [inhibitor, full curve, poor fit] |  |

| SMILES | Potency | activity change, negative = inhibition |
| --- | --- | --- |
| Cc1nc2cc(NC(=O)Nc3ccccc3Cl)ccc2n1C | inconclusive: 89.1 µM [inhibitor, single point] |  |
| CCC(=O)N1CCc2cc(Br)cc(S(=O)(=O)CCC(=O)Nc3ccc(Cl)cc3)c21 | inconclusive: 39.8 µM [inhibitor, partial curve] |  |
| COCCNS(=O)(=O)c1cc(OC)c(Cl)cc1Cl | inconclusive: 1.58 µM [inhibitor, full curve] |  |
| C/C=C\C=C\C(=O)N1CC2(CC(c3cccc(NC(=O)COc4ccc(Cl)cc4)c3)=NO2)C[C@H]1C(N)=O (stereo partly drawn) | inactive |  |
| O=Cc1ccc(-c2ccccc2C(=O)O)o1 | inconclusive: 50.1 µM [inhibitor, partial curve] |  |
| N#Cc1ccc(NC(=O)C2Cc3ccccc3CN2S(=O)(=O)c2ccc(F)cc2)cc1 (stereo not drawn) | inactive |  |
| O=C(COc1ccc(F)cc1)Nc1ccc2nc(SCCOc3ccccc3)sc2c1 | inconclusive: 89.1 µM [inhibitor, single point] |  |
| CC1CCN(C(=S)c2ccc(O)cc2)CC1 | inactive |  |
| Cn1c2ccccc2c(=O)c2cc(C#CC3(O)CCCCC3)ccc21 | inconclusive: 3.55 µM [inhibitor, partial curve] |  |
| COc1ccc2c(c1)c(=O)oc1cc(OCC(=O)N3CCc4ccccc4C3)ccc12 | active: 11.2 µM |  |
| O=C(c1ccccc1F)N1C(=O)c2cccc3cccc1c23 | inconclusive: 56.2 µM [inhibitor, partial curve] |  |
| Cc1ccccc1NS(=O)(=O)c1cccc2nonc12 | inconclusive: 14.1 µM [inhibitor, full curve] |  |
| Cc1ccc(C(C)C)c(OCC(=O)N/N=C/C2CCCCC2)c1 | inconclusive: 50.1 µM [inhibitor, partial curve, poor fit] |  |
| COc1cccc(OCc2nnc(SCC(=O)NCc3ccco3)n2CCc2ccccc2)c1 | active: 22.4 µM |  |
| Cc1ccc(C)c(S(=O)(=O)Nc2ccc3oc(C)c(C(=O)O)c3c2)c1 | active: 8.91 µM |  |
| Cc1cc(Nc2ccccc2O)nc(C)n1 | inconclusive: 100 µM [inhibitor, single point] |  |
| COC(=O)c1ccc(-c2ccc(C(c3c(C)[nH][nH]c3=O)c3c(C)[nH][nH]c3=O)o2)cc1 | active: 20 µM |  |
| CCC(=O)Nc1ccc(NC(=O)CSc2nnnn2C(C)C)cc1 | inconclusive: 0.631 µM [inhibitor, full curve, poor fit] |  |
| Cc1ccc(S(=O)(=O)Nc2ccc(NC(=O)c3cccs3)cc2)cc1 | inactive |  |
| O=C(CCC1CCCCC1)Nc1nccs1 | inconclusive: 89.1 µM [inhibitor, single point] |  |
| CCCc1nc2ccccc2c(=O)n1/N=C/c1ccc(O)c(O)c1 | inconclusive: 11.2 µM [inhibitor, full curve] |  |
| CC(C)CCNc1nc(N2CCCC2)c2c(c1C#N)CCN(C)C2 | inconclusive: 3.16 µM [inhibitor, partial curve] |  |
| O=C(N/N=C/c1ccc(Br)s1)c1ccc([N+](=O)[O-])cc1 | inconclusive: 4.47 µM [inhibitor, full curve, poor fit] |  |

Gathered by group: the compounds so far containing an aryl thioether with sulfur outside any ring (3)

| SMILES | Potency | activity change, negative = inhibition |
| --- | --- | --- |
| O=C(COc1ccc(F)cc1)Nc1ccc2nc(SCCOc3ccccc3)sc2c1 | inconclusive: 89.1 µM [inhibitor, single point] |  |
| COc1cccc(OCc2nnc(SCC(=O)NCc3ccco3)n2CCc2ccccc2)c1 | active: 22.4 µM |  |
| CCC(=O)Nc1ccc(NC(=O)CSc2nnnn2C(C)C)cc1 | inconclusive: 0.631 µM [inhibitor, full curve, poor fit] |  |

The list continues.

| SMILES | Potency | activity change, negative = inhibition |
| --- | --- | --- |
| CN(C)c1ccc(N=c2sc3ccccc3n2C)cc1 | inactive |  |
| CC1(C)CC(=O)C2=C(C1)Nc1[nH]n(-c3ccccc3)c(=O)c1C2c1ccc2c(c1)OCO2 (stereo not drawn) | inconclusive: 50.1 µM [inhibitor, partial curve, poor fit] |  |
| Cc1nnc2c(NCC(C)c3ccccc3)nc3ccccc3n12 (stereo not drawn) | inconclusive: 3.55 µM [inhibitor, single point] |  |
| Nc1ccc2c(c1)C(=O)C(=O)c1ccccc1-2 | active: 5.01 µM |  |
| Cc1ccc(COC(=O)Cc2coc3cc(O)ccc23)cc1 | inconclusive: 44.7 µM [inhibitor, partial curve, poor fit] |  |
| CC1(C)C(=O)Nc2ccccc2N1C(=O)COc1ccc(S(=O)(=O)N2CCOCC2)cc1Cl | active: 25.1 µM |  |
| CNc1nnc(-c2cc3cc(Cl)ccc3oc2=O)s1 | inconclusive: 2 µM [inhibitor, full curve, poor fit] |  |
| OCCN1CCN(c2ncnc3c2sc2nc(N4CCOCC4)c4c(c23)CCC4)CC1 | inconclusive: 79.4 µM [inhibitor, single point] |  |
| COc1cc(C2C(C(=O)c3ccc(C)o3)=C(O)C(=O)N2c2cc(C)on2)ccc1O (stereo not drawn) | inconclusive: 10 µM [inhibitor, single point] |  |
| CCOCCCNC(=O)CN1CCN(Cc2ccc(Cl)cc2)C1=O | inconclusive: 17.8 µM [inhibitor, partial curve, poor fit] |  |
| Cc1ccc(NC(=O)c2cc(-c3ccc(C)c(C)c3O)n[nH]2)cc1C | inconclusive: 50.1 µM [inhibitor, partial curve] |  |
| Cc1oc(-c2cccc(F)c2)nc1CN1CCCCC1CCn1cccn1 (stereo not drawn) | inconclusive: 0.158 µM [inhibitor, full curve, poor fit] |  |
| CC1CC(=O)N(CC(=O)Nc2ccc(Br)cc2)c2ccccc2S1(=O)=O (stereo not drawn) | inconclusive: 39.8 µM [inhibitor, single point] |  |
| COc1cc(C(=O)NCc2ccc3c(c2)CCN3C(=O)c2ccncc2)cc(OC)c1OC | inconclusive: 0.158 µM [inhibitor, full curve, poor fit] |  |
| O=C(Cn1c(=O)n(CCC(=O)N2CCCCC2)c(=O)c2sccc21)NCc1ccccc1 |  | inconclusive: -30.8% [inhibitor] |
| Cc1ccc(C(=O)N/C(=C/c2ccccc2)C(=O)NC(Cc2ccccc2)C(=O)O)cc1 (stereo not drawn) | inconclusive: 89.1 µM [inhibitor, single point] |  |
| C=CCn1c(=O)[nH]c2cc(C(=O)N3CCN(c4cccc(Cl)c4)CC3)ccc2c1=O | inactive |  |
| Cn1c(SCC(=O)NNC(=O)c2ccccc2O)nnc1-c1ccccc1 | inconclusive: 4.47 µM [inhibitor, single point] |  |
| CCc1ccc(NC(=O)CSC2=Nc3ccccc3C3=NC(CCC(=O)NCc4cccs4)C(=O)N23)cc1 (stereo not drawn) | inactive |  |
| Nc1nn2c(-c3ccccc3)cc(=O)[nH]c2c1N=Nc1ccc(O)cc1 | inconclusive: 39.8 µM [inhibitor, full curve] |  |
| COc1ccc(CCNC(=O)c2ccc(CS(=O)(=O)c3ccc(C)cc3)o2)cc1OC | inconclusive: 20 µM [inhibitor, full curve, poor fit] |  |
| CCOC(=O)C1CCCN(CCC(=O)Nc2ccc(OC)cc2OC)C1 (stereo not drawn) | inactive |  |
